For assay [1], the target named is T1, NAT10 (human (endogenous in Jurkat)) (UniProt Q9H0A0).
T1 sequence: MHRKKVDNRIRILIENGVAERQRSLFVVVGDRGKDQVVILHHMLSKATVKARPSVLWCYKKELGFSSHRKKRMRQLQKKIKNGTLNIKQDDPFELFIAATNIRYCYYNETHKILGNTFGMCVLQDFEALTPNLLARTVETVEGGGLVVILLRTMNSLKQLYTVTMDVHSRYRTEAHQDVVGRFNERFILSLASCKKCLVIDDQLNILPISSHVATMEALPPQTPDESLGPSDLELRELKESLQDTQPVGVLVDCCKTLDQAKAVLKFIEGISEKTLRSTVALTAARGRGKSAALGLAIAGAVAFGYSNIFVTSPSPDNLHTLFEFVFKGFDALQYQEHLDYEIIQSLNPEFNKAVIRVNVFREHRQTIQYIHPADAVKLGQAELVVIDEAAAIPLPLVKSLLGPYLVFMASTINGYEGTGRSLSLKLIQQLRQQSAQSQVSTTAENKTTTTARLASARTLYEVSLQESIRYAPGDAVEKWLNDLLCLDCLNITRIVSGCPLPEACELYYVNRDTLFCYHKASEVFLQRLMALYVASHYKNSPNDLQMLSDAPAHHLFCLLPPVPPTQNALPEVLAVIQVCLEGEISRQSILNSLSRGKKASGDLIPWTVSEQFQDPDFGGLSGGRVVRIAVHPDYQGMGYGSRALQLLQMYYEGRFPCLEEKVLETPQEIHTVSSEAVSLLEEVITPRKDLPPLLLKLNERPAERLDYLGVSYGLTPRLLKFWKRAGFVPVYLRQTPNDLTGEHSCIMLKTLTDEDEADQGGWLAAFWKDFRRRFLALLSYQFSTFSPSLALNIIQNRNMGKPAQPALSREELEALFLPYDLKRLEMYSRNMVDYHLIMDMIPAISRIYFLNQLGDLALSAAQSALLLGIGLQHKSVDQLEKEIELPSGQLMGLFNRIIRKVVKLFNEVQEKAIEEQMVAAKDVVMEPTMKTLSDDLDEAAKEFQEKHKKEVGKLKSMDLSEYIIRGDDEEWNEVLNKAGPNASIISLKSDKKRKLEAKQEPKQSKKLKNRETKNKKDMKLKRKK
Nature of the assay: co-IP; 0.75 to 1.5 ug antibody immobilised on protein G magnetic beads; 125 ug Jurkat nuclear extract added overnight at 4°C in IP100 buffer with 0.05% NP40; washes with IP150 buffer; SDS-PAGE and immunoblotting; no TASHET DNA added. A general note: Immunoblotting shows a protein as a band on a membrane.

The chains behind the UniProt entries cited, without tags or fusion partners.
UniProt Q13547: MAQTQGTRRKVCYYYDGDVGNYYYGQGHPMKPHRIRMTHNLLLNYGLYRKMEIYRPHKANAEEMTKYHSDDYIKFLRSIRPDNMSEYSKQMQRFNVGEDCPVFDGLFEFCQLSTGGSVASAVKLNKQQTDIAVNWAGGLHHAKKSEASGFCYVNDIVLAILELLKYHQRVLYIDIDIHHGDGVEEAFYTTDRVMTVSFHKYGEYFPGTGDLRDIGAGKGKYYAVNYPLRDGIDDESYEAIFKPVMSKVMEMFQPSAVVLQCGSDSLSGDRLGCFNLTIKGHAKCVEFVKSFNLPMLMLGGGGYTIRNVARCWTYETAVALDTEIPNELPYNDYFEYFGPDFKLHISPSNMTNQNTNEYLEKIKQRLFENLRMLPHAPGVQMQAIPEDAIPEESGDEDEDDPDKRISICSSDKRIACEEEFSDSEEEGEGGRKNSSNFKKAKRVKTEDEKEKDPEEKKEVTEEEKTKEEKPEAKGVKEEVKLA

For assay [2], the target named is T2, MIDEAS (human (endogenous in Jurkat)) (UniProt Q6PJG2).
T2 sequence: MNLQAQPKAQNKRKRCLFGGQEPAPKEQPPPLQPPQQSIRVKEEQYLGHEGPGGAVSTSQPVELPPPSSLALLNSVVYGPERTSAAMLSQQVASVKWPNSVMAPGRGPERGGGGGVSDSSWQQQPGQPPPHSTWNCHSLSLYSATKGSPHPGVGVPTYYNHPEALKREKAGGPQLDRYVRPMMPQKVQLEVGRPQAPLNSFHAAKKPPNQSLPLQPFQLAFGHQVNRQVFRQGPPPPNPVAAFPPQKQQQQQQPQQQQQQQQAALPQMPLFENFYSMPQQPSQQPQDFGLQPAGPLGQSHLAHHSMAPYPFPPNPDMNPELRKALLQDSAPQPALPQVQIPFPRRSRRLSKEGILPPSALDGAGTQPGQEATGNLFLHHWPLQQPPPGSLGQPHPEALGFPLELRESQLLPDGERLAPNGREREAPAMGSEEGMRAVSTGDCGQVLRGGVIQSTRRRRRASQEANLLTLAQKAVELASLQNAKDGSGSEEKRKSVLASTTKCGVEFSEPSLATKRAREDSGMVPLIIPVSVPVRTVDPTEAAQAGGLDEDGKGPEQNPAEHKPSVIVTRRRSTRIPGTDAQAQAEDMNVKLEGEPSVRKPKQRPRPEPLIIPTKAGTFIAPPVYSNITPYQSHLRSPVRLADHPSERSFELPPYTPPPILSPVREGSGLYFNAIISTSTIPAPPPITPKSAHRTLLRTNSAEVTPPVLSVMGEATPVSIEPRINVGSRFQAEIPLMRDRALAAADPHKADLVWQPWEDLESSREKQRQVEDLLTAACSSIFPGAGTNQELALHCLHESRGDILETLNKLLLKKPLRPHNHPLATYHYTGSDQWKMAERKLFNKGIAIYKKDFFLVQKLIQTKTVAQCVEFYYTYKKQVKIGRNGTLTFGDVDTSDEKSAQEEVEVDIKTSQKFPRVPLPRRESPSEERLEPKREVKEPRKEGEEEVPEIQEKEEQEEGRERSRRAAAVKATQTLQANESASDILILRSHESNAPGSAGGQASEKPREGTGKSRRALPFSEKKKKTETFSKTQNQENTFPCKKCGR
The assay is described as above.

These are yes or no findings as the source states them, for the method shown. In cells and extracts the contact can be indirect. Some results given as binding are weak or reduced against the parent protein; the word gives no strength.

In the case of “HDAC1 (from UniProt Q13547 1-482) (enzyme)”, the binding result in assay [1] and in assay [2] was “binds” throughout.

B1: MIDEAS (protein, UniProt Q6PJG2 1-1045)
chain: MNLQAQPKAQNKRKRCLFGGQEPAPKEQPPPLQPPQQSIRVKEEQYLGHEGPGGAVSTSQPVELPPPSSLALLNSVVYGPERTSAAMLSQQVASVKWPNSVMAPGRGPERGGGGGVSDSSWQQQPGQPPPHSTWNCHSLSLYSATKGSPHPGVGVPTYYNHPEALKREKAGGPQLDRYVRPMMPQKVQLEVGRPQAPLNSFHAAKKPPNQSLPLQPFQLAFGHQVNRQVFRQGPPPPNPVAAFPPQKQQQQQQPQQQQQQQQAALPQMPLFENFYSMPQQPSQQPQDFGLQPAGPLGQSHLAHHSMAPYPFPPNPDMNPELRKALLQDSAPQPALPQVQIPFPRRSRRLSKEGILPPSALDGAGTQPGQEATGNLFLHHWPLQQPPPGSLGQPHPEALGFPLELRESQLLPDGERLAPNGREREAPAMGSEEGMRAVSTGDCGQVLRGGVIQSTRRRRRASQEANLLTLAQKAVELASLQNAKDGSGSEEKRKSVLASTTKCGVEFSEPSLATKRAREDSGMVPLIIPVSVPVRTVDPTEAAQAGGLDEDGKGPEQNPAEHKPSVIVTRRRSTRIPGTDAQAQAEDMNVKLEGEPSVRKPKQRPRPEPLIIPTKAGTFIAPPVYSNITPYQSHLRSPVRLADHPSERSFELPPYTPPPILSPVREGSGLYFNAIISTSTIPAPPPITPKSAHRTLLRTNSAEVTPPVLSVMGEATPVSIEPRINVGSRFQAEIPLMRDRALAAADPHKADLVWQPWEDLESSREKQRQVEDLLTAACSSIFPGAGTNQELALHCLHESRGDILETLNKLLLKKPLRPHNHPLATYHYTGSDQWKMAERKLFNKGIAIYKKDFFLVQKLIQTKTVAQCVEFYYTYKKQVKIGRNGTLTFGDVDTSDEKSAQEEVEVDIKTSQKFPRVPLPRRESPSEERLEPKREVKEPRKEGEEEVPEIQEKEEQEEGRERSRRAAAVKATQTLQANESASDILILRSHESNAPGSAGGQASEKPREGTGKSRRALPFSEKKKKTETFSKTQNQENTFPCKKCGR
Take B1: the binding entry in assay [1] is recorded as “binds”.

(Values after article PMC11115230, “Mitotic deacetylase complex (MiDAC) recognizes the HIV-1 core promoter to control activated viral gene expression”.)
